Data as given in PubChem BioAssay AID743454 (Peter MacCallum Cancer Centre, 2014)
Here is an unselected part of about 18,000 deposited reagents. Of all reagents, 450 (2.5%) got an active call. 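Single biological run; no consistent viability z cut-off exists, so the class columns, not z-scores, define the calls.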 No sequences are given here.

Aim: 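Knock-downs lowering viability or raising caspase 3/7 activity in vorinostat-treated resistant cells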 (primary screen)
Cell system: human HCT116-VR colon cancer cells, selected for vorinostat resistance
Reagent: siRNA pool against human genes, 40 nM siRNA pool
Timing: vorinostat for 24 h, read-out about 72 h after transfection
Treatment: vorinostat at 2.5 µM final
Detection: 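Cell viability by CellTiter-Fluor and caspase 3/7 activity by luminescence, each scaled to mock wells per plate, duplicates averaged, then robust z-scored over all plates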
Scale: viability robust z-score: higher = more viable cells than screen typical; caspase robust z-score: higher = more caspase 3/7 activity than screen typical
Call rule: 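Hits are knock-downs in viability class RV1/RV2 or caspase class CA1/CA2, excluding ones that killed cells in the no-drug cell-count arm; hits then retested with single siRNAs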

target	viability hit class	caspase hit class	viability robust z-score	caspase robust z-score	outcome
KRTAP3-1 (GeneID 83896)	no change	no change	-0.64	1.18	inactive
ZNF404 (GeneID 342908)	no change	no change	0.22	-0.91	inactive
C1R (GeneID 715)	no change	no change	-1.9	0.46	inactive
HBD (GeneID 3045)	no change	no change	-0.06	0	inactive
KYNU (GeneID 8942)	no change	no change	0.36	-0.8	inactive
KRTDAP (GeneID 388533)	no change	no change	0.92	1.61	inactive
TMX3 (GeneID 54495)	no change	no change	0.3	0.62	inactive
ABCD4 (GeneID 5826)	no change	no change	-0.55	0.19	inactive
RSRC1 (GeneID 51319)	no change	no change	-0.22	-0.86	inactive
ARGLU1 (GeneID 55082)	no change	no change	-1.18	-0.29	inactive
OR5D14 (GeneID 219436)	no change	no change	-0.44	2.34	inactive
DENND2A (GeneID 27147)	no change	no change	0.66	-0.34	inactive
B2M (GeneID 567)	no change	no change	0.9	-0.47	inactive
PYM1 (GeneID 84305)	no change	no change	-0.66	-0.44	inactive
TPD52L3 (GeneID 89882)	no change	no change	1.21	0.4	inactive
BTRC (GeneID 8945)	no change	no change	0.67	-0.59	inactive
EXD1 (GeneID 161829)	no change	no change	-0.2	-0.33	inactive
RNF113A (GeneID 7737)	no change	no change	0.88	-0.03	inactive
NRBF2 (GeneID 29982)	no change	no change	0.78	-0.01	inactive
FAM174C (GeneID 55009)	no change	no change	-0.1	0.31	inactive
PPM1M (GeneID 132160)	no change	no change	-0.83	-0.27	inactive
MID1IP1 (GeneID 58526)	no change	no change	-0.03	-0.54	inactive
ILDR2 (GeneID 387597)	no change	no change	0.68	0.82	inactive
F7 (GeneID 2155)	no change	no change	-4.2	4.39	inactive
CIITA (GeneID 4261)	no change	no change	-0.27	0.56	inactive
KCNAB3 (GeneID 9196)	no change	no change	0.55	-0.4	inactive
ZNF496 (GeneID 84838)	no change	no change	-0.54	-0.39	inactive
IFNA4 (GeneID 3441)	no change	no change	1.03	-0.08	inactive
SPANXN2 (GeneID 494119)	no change	no change	0.78	0.1	inactive
PI16 (GeneID 221476)	no change	no change	0.54	-0.18	inactive
KRTAP3-3 (GeneID 85293)	no change	no change	-1.2	-0.05	inactive
CHUK (GeneID 1147)	no change	no change	0.53	1.07	inactive
CEP85 (GeneID 64793)	no change	no change	-0.48	1.35	inactive
PPP1CC (GeneID 5501)	no change	no change	0.21	-0.32	inactive
VEZF1 (GeneID 7716)	no change	no change	0.25	-1.01	inactive
SLC43A3 (GeneID 29015)	no change	no change	0.2	-0.44	inactive
IL1B (GeneID 3553)	no change	no change	0.06	0.1	inactive
MEIS1 (GeneID 4211)	no change	no change	-0.2	-0.68	inactive
PNLIPRP3 (GeneID 119548)	no change	no change	-0.94	-0.84	inactive
TTC9B (GeneID 148014)	no change	no change	0.18	3.31	inactive
C11orf58 (GeneID 10944)	no change	no change	0.07	-0.54	inactive
ADM (GeneID 133)	no change	no change	-1.07	0.16	inactive
SLC4A4 (GeneID 8671)	no change	no change	-0.8	-1.01	inactive
MYO5C (GeneID 55930)	no change	no change	0.68	1.63	inactive
DPP3 (GeneID 10072)	no change	no change	-0.21	1.26	inactive
CCL4 (GeneID 6351)	no change	no change	-0.86	2.56	inactive
HSF2BP (GeneID 11077)	no change	no change	1.97	1.31	inactive
KIF18B (GeneID 146909)	no change	no change	-1.27	-0.03	inactive
OR2F1 (GeneID 26211)	no change	no change	-1.23	2.12	inactive
HMOX1 (GeneID 3162)	no change	no change	0.34	-0.58	inactive
CD63 (GeneID 967)	no change	no change	1.25	1.65	inactive
PLEKHA6 (GeneID 22874)	no change	no change	-0.31	-0.18	inactive
CCL3 (GeneID 6348)	no change	no change	-0.78	0.7	inactive
GDPGP1 (GeneID 390637)	no change	no change	0.49	1.23	inactive
PIK3R6 (GeneID 146850)	no change	no change	-0.96	2.48	inactive
CSPP1 (GeneID 79848)	no change	no change	0.63	-0.88	inactive
GRM1 (GeneID 2911)	no change	no change	-0.43	0.92	inactive

Already shown: an excerpt of the list.
target	viability hit class	caspase hit class	viability robust z-score	caspase robust z-score	outcome
PPP1CC (GeneID 5501)	no change	no change	0.21	-0.32	inactive
VEZF1 (GeneID 7716)	no change	no change	0.25	-1.01	inactive
SLC43A3 (GeneID 29015)	no change	no change	0.2	-0.44	inactive
IL1B (GeneID 3553)	no change	no change	0.06	0.1	inactive
MEIS1 (GeneID 4211)	no change	no change	-0.2	-0.68	inactive
PNLIPRP3 (GeneID 119548)	no change	no change	-0.94	-0.84	inactive
TTC9B (GeneID 148014)	no change	no change	0.18	3.31	inactive
C11orf58 (GeneID 10944)	no change	no change	0.07	-0.54	inactive
